PMC7901959
No constants are given. Whether binding was seen depends on the method and setting. Binding seen in cells or lysates may run through a third protein. Here binding means that the protein was enriched with, or labelled near, the bait; the list need not be complete.

Sequences of proteins named here, by UniProt entry; tags and fusion partners are left off.
UniProt Q9C030: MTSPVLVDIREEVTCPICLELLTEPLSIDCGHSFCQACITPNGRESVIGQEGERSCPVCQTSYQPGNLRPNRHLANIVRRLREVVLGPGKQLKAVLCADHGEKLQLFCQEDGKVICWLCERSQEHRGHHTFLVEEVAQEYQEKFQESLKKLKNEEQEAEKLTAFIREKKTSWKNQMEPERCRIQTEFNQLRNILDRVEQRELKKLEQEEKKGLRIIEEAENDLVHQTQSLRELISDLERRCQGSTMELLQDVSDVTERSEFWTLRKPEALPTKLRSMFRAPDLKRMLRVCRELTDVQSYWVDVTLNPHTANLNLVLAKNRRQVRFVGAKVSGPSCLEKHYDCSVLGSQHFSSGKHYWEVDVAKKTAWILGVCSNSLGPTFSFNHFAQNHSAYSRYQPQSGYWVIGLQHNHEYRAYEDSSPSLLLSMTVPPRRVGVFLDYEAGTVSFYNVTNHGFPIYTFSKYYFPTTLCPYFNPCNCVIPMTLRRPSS

Molecular target: FLAG-TRIM6 (tripartite motif-containing protein 6) (human) (UniProt Q9C030)
Test: affinity purification with mass spectrometry; FLAG-TRIM6 expressed in HEK293T; RIPA extracts pre-cleared with IgG and protein A/G beads, incubated with anti-FLAG beads overnight at 4°C, eluted with FLAG peptide; SDS-PAGE bands analysed by LC/MS

binding: binds
B1: TSC1 (tuberous sclerosis protein 1), endogenous in HEK293T (protein, UniProt Q92574 1-1164)
chain: MAQQANVGELLAMLDSPMLGVRDDVTAVFKENLNSDRGPMLVNTLVDYYLETSSQPALHILTTLQEPHDKHLLDRINEYVGKAATRLSILSLLGHVIRLQPSWKHKLSQAPLLPSLLKCLKMDTDVVVLTTGVLVLITMLPMIPQSGKQHLLDFFDIFGRLSSWCLKKPGHVAEVYLVHLHASVYALFHRLYGMYPCNFVSFLRSHYSMKENLETFEEVVKPMMEHVRIHPELVTGSKDHELDPRRWKRLETHDVVIECAKISLDPTEASYEDGYSVSHQISARFPHRSADVTTSPYADTQNSYGCATSTPYSTSRLMLLNMPGQLPQTLSSPSTRLITEPPQATLWSPSMVCGMTTPPTSPGNVPPDLSHPYSKVFGTTAGGKGTPLGTPATSPPPAPLCHSDDYVHISLPQATVTPPRKEERMDSARPCLHRQHHLLNDRGSEEPPGSKGSVTLSDLPGFLGDLASEEDSIEKDKEEAAISRELSEITTAEAEPVVPRGGFDSPFYRDSLPGSQRKTHSAASSSQGASVNPEPLHSSLDKLGPDTPKQAFTPIDLPCGSADESPAGDRECQTSLETSIFTPSPCKIPPPTRVGFGSGQPPPYDHLFEVALPKTAHHFVIRKTEELLKKAKGNTEEDGVPSTSPMEVLDRLIQQGADAHSKELNKLPLPSKSVDWTHFGGSPPSDEIRTLRDQLLLLHNQLLYERFKRQQHALRNRRLLRKVIKAAALEEHNAAMKDQLKLQEKDIQMWKVSLQKEQARYNQLQEQRDTMVTKLHSQIRQLQHDREEFYNQSQELQTKLEDCRNMIAELRIELKKANNKVCHTELLLSQVSQKLSNSESVQQQMEFLNRQLLVLGEVNELYLEQLQNKHSDTTKEVEMMKAAYRKELEKNRSHVLQQTQRLDTSQKRILELESHLAKKDHLLLEQKKYLEDVKLQARGQLQAAESRYEAQKRITQVFELEILDLYGRLEKDGLLKKLEEEKAEAAEAAEERLDCCNDGCSDSMVGHNEEASGHNGETKTPRPSSARGSSGSRGGGGSSSSSSELSTPEKPPHQRAGPFSSRWETTMGEASASIPTTVGSLPSSKSFLGMKARELFRNKSESQCDEDGMTSSLSESLKTELGKDLGVEAKIPLNLDGPHPSPPTPDSVGQLHIMDYNETHHEHS
